Source: paper PMC6345808, “Molecular structure and function of myelin protein P0 in membrane stacking” (Scientific Reports, 2019)
Results are given in words; binding and its absence hold for the method and conditions named.

What was measured:
[1] = biological target: cytoplasmic extension of human myelin protein zero (P0ct), Cys153Leu (human) (UniProt P25189); assay: SAXS; P0ct at 1.1–4.2 mg ml^−1 in SEC buffer (20 mM HEPES, 300 mM NaCl, 1% glycerol, pH 7.5), EMBL P12 beamline; both purified
[2] = biological target: cytoplasmic extension of human myelin protein zero (P0ct), Cys153Leu (human) (UniProt P25189); assay: SEC-MALS; P0ct, 250 µg injected on Superdex 75 pg 10/300GL, 20 mM HEPES, 300 mM NaCl, pH 7.5, 0.4 ml/min; both purified

- binding [1]: no binding (tested: 1.1–4.2 mg ml^−1)
B1: cytoplasmic extension of human myelin protein zero (P0ct), Cys153Leu (domain or fragment, UniProt P25189 180-248)
chain: GRYLWLRRQAALQRRLSAMEKGKLHKPGKDASKRGRQTPVLYAMLDHSRSTKAVSEKKAKGLGESRKDKK
- binding [2]: no binding (tested: 250-µg sample injected)
